Measurements reported in PubChem BioAssay AID1259415 (National Center for Advancing Translational Sciences (NCATS), 2018).
Hit rate of the full screen: of about 410,000 compounds, about 18,000 (4.4%) were called active. The shares of active, inactive and inconclusive entries below differ from those in the screen. No stated cut-off is given here; in the data, active means activity change below about -60%; inconclusive means no clear call, values can overlap the other calls; inactive means above about -39%.

assay: qHTS Assay for inhibitors of the human cytomegalovirus (HCMV); details: HFF cells, HCMV-luciferase reporter, 72 h; at 57.5 µM; active compounds read low
Method in brief: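 HFF cells seeded 16 h at 37C, treated with compounds, infected with luciferase-reporter HCMV at MOI 1 PFU/cell; luciferase read at 72 h post infection, normalized to buffer-only and Salinomycin controls.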
On the % scale 0 is the no-effect control and ±100 the full control effect.

Row | SMILES | activity change, negative = inhibition
1 | CN(C)/C=C/C(=O)c1ccn(S(=O)(=O)c2ccccc2)c1 | inconclusive: -54.9%
2 | O=C(c1cc(O)c(O)c([N+](=O)[O-])c1)c1ccccc1F | inconclusive: -46.6%
3 | O=C(CSCc1ccc(F)cc1)N1CCc2c([nH]c3ccccc23)C1c1ccccc1 (stereo not drawn) | inactive: -5.08%
4 | O=C(CN(c1ccccc1F)S(=O)(=O)c1ccccc1)Nc1ccc2c(c1)OCCO2 | inconclusive: -44.3%
5 | CC1=C(C(=O)OCC(C)C)C(c2ccccc2Cl)NC(=O)N1C (stereo not drawn) | inconclusive: -51.6%
6 | O=C(CCC(=O)c1ccccc1)NCCOc1ccccc1 | inactive: -39.6%
7 | O=C(Nc1ccc(N2CCN(C(=O)c3ccco3)CC2)cc1)c1cccnc1Cl | inconclusive: -49.3%
8 | CN(C)S(=O)(=O)c1ccc(NC(=O)/C=C/c2ccccc2Cl)cc1 | inconclusive: -44.5%
9 | CCOC(=O)N1CCN(c2ccc(O)cc2)CC1 | inconclusive: -45.4%
10 | COc1ccc(C(=O)C[n+]2ccc3c(c2)nc(-c2cc(OC)c(OC)cc2OC)n3C)cc1 | inconclusive: -46.9%
11 | CCc1nc(NC(C)(C)C)c2cnn(-c3ccccc3)c2n1 | inconclusive: -55.6%
12 | O=C(O)c1ccccc1/C=N/Nc1nc(N2CCCCC2)nc(N2CCCCC2)n1 | inconclusive: -58.4%
13 | COC(=O)c1ccc(COC(=O)c2ccc(N(C)C)cc2)cc1 | inactive: 17.6%
14 | CCc1ccc(C(=O)c2cn(Cc3ccccc3)c3cc(OC)c(OC)cc3c2=O)cc1 | active: -64.9%
15 | Cc1ccccc1N=Nc1ccc(O)c2ncccc12 | active: -92.9%
16 | CC(C)Cc1nc2oc3c(Cl)ncnc3c2c2c1CCC2 | active: -95.6%
17 | COc1ccc(Cl)cc1NC(=O)CN1CCC(n2nnc3cc(C)ccc32)CC1 | inconclusive: -52.1%
18 | CSc1ccc(/C=C/C(=O)c2c(O)cc(C)oc2=O)cc1 | active: -80.1%
19 | Cc1ccc(-n2ncc(C(=O)N3CCN(C4CCCCC4)CC3)c2C2CCN(C(=O)OC(C)(C)C)CC2)cc1 | inactive: 6.44%
20 | CCc1ccc(Sc2cc(C(=O)NCCCN3CCCC(C)C3)c3ccccc3n2)cc1 (stereo not drawn) | active: -60.5%
21 | O=C(CCN1C(=O)/C(=C\c2cccs2)SC1=S)Nc1ccc(C(=O)O)cc1 | inactive: -21%
22 | Cc1ccc(C(=O)NC2CCN(Cc3ccccc3)CC2)cc1S(=O)(=O)N1CCOCC1 | inconclusive: -51.6%

Row | SMILES | activity change, negative = inhibition
23 | Cc1ccccc1NC(=S)NCc1cccn1C | inconclusive: -48%
24 | OC(COc1ccc(CNCCc2ccccc2F)cc1)CN1CCCCC1 (stereo not drawn) | inactive: -33.3%
25 | CCOC(=O)CCCNC(=O)CSc1nnc(-c2ccccc2)c(-c2ccccc2)n1 | inactive: -2.19%
26 | CNc1cc(Cl)c2nonc2c1[N+](=O)[O-] | active: -98.9%
27 | COc1ccc(-c2nnn(CCc3nn[nH]n3)n2)cc1OC | inconclusive: -40.2%
28 | CCOC(=O)C1(Cc2ccccc2)CCN(Cc2cn[nH]c2-c2ccccc2)CC1 | active: -77.8%
29 | COCCn1c(SCC(=O)Nc2ccc(NC(C)=O)cc2)nc2ccccc2c1=O | inconclusive: -43.2%
30 | CC1CC(=O)Nc2ccccc2N1C(=O)Nc1ccccc1 (stereo not drawn) | inconclusive: -57.2%
31 | O=C(Nc1ccc(Oc2ccccc2)cc1)C1CCN(S(=O)(=O)c2ccccc2)CC1 | active: -82.4%
32 | CCOc1ccc(S(=O)(=O)n2c(C)nc3ccccc32)cc1 | inactive: -25%
33 | Cc1cc(C)c(S(=O)(=O)Nc2nccs2)c(C)c1 | inactive: 47.2%
34 | Cc1cccc(OCC(=O)Nc2ccncc2)c1C | active: -83.5%
35 | COC(=O)C(Cc1c[nH]c2ccccc12)NC(=O)c1cc(-c2ccc(OC)c(OC)c2)oc1C (stereo not drawn) | inactive: 43.1%
36 | C=CCSc1nc(C)c(Cc2cccc3ccccc23)c(=O)[nH]1 | inconclusive: -52.1%
37 | CC(=O)c1cc2ccccc2oc1=O | inactive: -39.5%
38 | CN(Cc1ccccc1)C(=O)[C@@H]1CCCN1C(=O)OC(C)(C)C | inactive: 2.36%
39 | CCOC(=O)c1c(NC(=O)c2ccc(S(=O)(=O)N(C)C)cc2)sc2c1CCN(C)C2 | inconclusive: -56.7%
40 | CN(C)c1nc(C#N)nc(N(C)C)n1 | inconclusive: -45.9%
41 | CCn1c(C(C)NC(=O)c2cccs2)nc2ccccc21 (stereo not drawn) | inconclusive: -46.4%
42 | CC(=O)N1CCc2cc(S(=O)(=O)NC(Cc3ccccc3)C(=O)Nc3cc(C)ccn3)ccc21 (stereo not drawn) | inconclusive: -47.9%
43 | Cc1ccc(S(=O)(=O)N(CCCN2CCCC2=O)Cc2cc3c(C)ccc(C)c3[nH]c2=O)cc1 | active: -63.7%
44 | Cc1ccn2c(C(=O)N/N=C\c3ccccc3[N+](=O)[O-])c(C)nc2c1 | inconclusive: -50.5%

Copied from above: entries 39 to 40
Row | SMILES | activity change, negative = inhibition
39 | CCOC(=O)c1c(NC(=O)c2ccc(S(=O)(=O)N(C)C)cc2)sc2c1CCN(C)C2 | inconclusive: -56.7%
40 | CN(C)c1nc(C#N)nc(N(C)C)n1 | inconclusive: -45.9%

(next part)

Row | SMILES | activity change, negative = inhibition
45 | Cc1ccc(C)c(CN2C(=O)c3ccccc3Sc3ccc(C(=O)NCCCOC(C)C)cc32)c1 | inconclusive: -40.9%
46 | Cc1ccc(NC(=O)Nc2cccnc2)cc1Cl | inconclusive: -51%
47 | O=C(NC1CCCc2c1cnn2-c1ccccc1F)c1ccccn1 (stereo not drawn) | active: -97.8%
48 | Cc1ccc(N2CCN(C(=O)C(=O)c3cccc([N+](=O)[O-])c3)CC2)cc1 | inactive: 2.26%
49 | CC1CCN(C(=O)c2ccc(S(=O)(=O)N3CCOCC3)cc2)CC1 | inconclusive: -44%
50 | CCOC(=O)c1ccc(NC(=O)c2ccc3c(c2)CCN3S(=O)(=O)c2ccc(Cl)cc2)cc1 | inconclusive: -42.5%
51 | COc1cc2[nH]c(=O)n(Cc3ccc(C(=O)N4CCN(c5cccc(C)c5C)CC4)cc3)c(=O)c2cc1OC | active: -108%
52 | CC1=Nc2ccccc2/C1=C\c1nc(-c2ccccc2)oc1O | inactive: 18.3%
53 | Cc1ccc(-c2nsc(NC(=O)c3oc4cc(C)c(Cl)cc4c3C)n2)cc1 | inconclusive: -47.3%
54 | CCn1c(=O)c2sccc2n2c(CCCC(=O)N3CCN(c4ccccc4OC)CC3)nnc12 | inconclusive: -47.5%
55 | COC(=O)/C(=C1/Oc2ccc(C(C)(C)C)cc2S1)C(F)(F)F | inconclusive: -54.5%
56 | O=C(N/N=C/C(Br)=C/c1ccccc1)c1ccncc1 | inconclusive: -45.7%
57 | CCOc1ccccc1C(=O)Nc1cnn(Cc2ccc(F)cc2)c1 | active: -63.4%
58 | CCOC(=O)c1nn(-c2ccc3c(c2)OCO3)cc1O | active: -101%
59 | O=C(COC(=O)c1cccc(O)c1)Nc1ccc(Cl)cc1C(=O)c1ccccc1 | inconclusive: -45.7%
60 | O=C(CCc1n[nH]c(=O)[nH]c1=O)N/N=C/c1ccc(Br)o1 | inconclusive: -46.4%
61 | c1ccc2c(-c3c[nH]c4ccccc34)c3ccccc3nc2c1 | active: -90.5%
62 | O=C(NC(=S)Nc1ccc(F)c([N+](=O)[O-])c1)c1ccccc1F | inactive: 44.1%
63 | Cc1ccccc1C(=O)O/N=C(\N)c1ccc([N+](=O)[O-])cc1 | inactive: 253%
64 | COc1ccc(C)cc1NC(=O)c1ccccc1NS(=O)(=O)c1ccc(Cl)s1 | active: -61.1%
65 | S=C(Nc1ccc(Br)cc1)NC1CCCC1 | active: -64.7%
66 | CCc1cc2c(=O)c(-c3nc(C)cs3)coc2cc1O | inactive: 0%

Grouped by structure, the compounds so far containing a COOH group (2)
Row | SMILES | activity change, negative = inhibition
12 | O=C(O)c1ccccc1/C=N/Nc1nc(N2CCCCC2)nc(N2CCCCC2)n1 | inconclusive: -58.4%
21 | O=C(CCN1C(=O)/C(=C\c2cccs2)SC1=S)Nc1ccc(C(=O)O)cc1 | inactive: -21%

(next part)

Row | SMILES | activity change, negative = inhibition
67 | Cc1ccc(S(=O)(=O)N2[C@@H](c3ccccc3F)C(C(=O)O)=CC[C@H]2c2ccc(Cl)c(Cl)c2)cc1 | inactive: -18.1%
68 | Cc1ccc(N2CCN(C3=NC(=O)/C(=C\c4cn[nH]c4-c4ccccc4)S3)CC2)cc1 | inconclusive: -53.5%
69 | CCN(CC)S(=O)(=O)c1ccc(/C=C/C(=O)O)cc1 | inconclusive: -44.7%
70 | Cc1ccc(CN(C)C(=O)C2CCCN2C(=O)c2cccs2)o1 (stereo not drawn) | inactive: -27.9%
71 | O=C(OCCO)c1c(-c2ccccc2)oc2c1C(OCCO)CCC2 (stereo not drawn) | inactive: -3.93%
72 | N#C/C(=C\c1ccc([N+](=O)[O-])cc1)c1nc(C2CC2)cs1 | inactive: 74.8%
73 | S=C(Nc1ccccc1Cl)N(Cc1ccccc1)Cc1ccccn1 | inconclusive: -51.7%
74 | CCCN(CCC)CCNC(=O)c1cc(Sc2ccc(Cl)cc2)nc2ccccc12 | inactive: 15.1%
75 | CC(C)C(=O)Nc1ncc(Cc2ccc(Cl)cc2)s1 | inactive: -29.5%
76 | CN1/C(=C/C=C(/C#N)C(N)=O)C(C)(C)c2ccccc21 | inconclusive: -48.7%
77 | Cc1ccccc1C(=O)N1CCN(C(c2ccccc2)c2ccccc2)CC1 | inactive: 38%
78 | CC(C)[C@@H](C(=O)N[C@@H](C(=O)O)c1ccccc1)N1C(=O)N2CCc3c([nH]c4ccccc34)[C@@]2(C)C1=O | inactive: -23.5%
79 | N#CC1=C2N=C(N)c3ccccc3N2C2=C(C(=O)CCC2)C1c1ccc(F)cc1 (stereo not drawn) | inactive: -17.6%
80 | Cc1cc(C)n(-c2nc(NCCCN(C)C)c3c4c(sc3n2)CCCC4)n1 | active: -97.9%
81 | Cc1ccc2c(c1)N(C(=O)CCC(=O)NCCCN1CC(C)CC(C)C1)CCO2 (stereo not drawn) | inactive: -4.1%
82 | Cc1nc2c(-c3ccc(F)cc3)c(C)nn2c(C)c1CCC(=O)N1CCN(c2ccccn2)CC1 | active: -68.5%
83 | COc1cccc(-c2cccc(NC(=O)C3CCN(Cc4cccc(C)n4)CC3)c2)c1 | inactive: -30.2%
84 | CCOc1ccc(C(=O)Nc2cccc3ncccc23)cc1Br | inconclusive: -57.6%
85 | COc1ccc(/C=C2\SC(=S)N(C(C)C(=O)NC3C=CS(=O)(=O)C3)C2=O)cc1 (stereo not drawn) | inconclusive: -49.9%
86 | COc1ccc(/C=N/NC(=O)c2nnn(-c3nonc3N)c2-c2cccc(OC)c2)cc1 | inactive: -32.6%
87 | Cc1ccc2nc(-c3ccc(S(=O)(=O)N4CCCCC4)cc3)cn2c1 | inconclusive: -58.3%
88 | Cc1ccc(C)c(NC2=NS(=O)(=O)c3ccccc32)c1 | inconclusive: -50.4%
